For part of these data: At least one compound was matched to its structure with a doubt left. Some of these results come from one statement about several compounds together.
How the values were obtained:
PANC-1 cell line = assay: RNA-Seq whole transcriptome analysis, PANC-1; format: cell-based, human; conditions: 10 nM Afatinib, 1 μM UR214-9
HE4 = HE4 ELISA, secreted and intracellular levels; format: cell-based, human; conditions: ECC-1, 5 hours (FIG. 4C)
Protocol: Cell lines, Culture, and Reagents. Cells were maintained in either DMEM (SKOV-3, KLE, OVCAR-3, OVCAR8-C5 and IGROV-1) or RPMI-1640 (ECC-1 and HCH-1), supplemented with 10% fetal calf serum (or 20% for OVCAR-3), penicillin (100 units/mL), and streptomycin (100 μg/mL) at 37° C. with 5% CO2 in a humidified incubator. Antibodies were purchased from Abcam (septin-2; ab179436) and Cell Signaling Technology; ERK (9102), p-ERK (4370), -actin (3700), u-Tubulin (2144), EGFR (4267) and HER2 (4290). FCF was purchased from Abcam. All other chemicals were from Sigma Aldrich. Synthesis of Derivaties. […] The reaction was monitored using thin-layer chromatography plates with DCM-MeOH or pure ethyl acetate as eluent. Spots were monitored in a UV chamber. […] Quantitative Real-Time PCR. […] Quantitative real-time PCR was conducted using QuantStudio 12 K Flex Real-Time PCR System (ABI) and the Taqman Gene Expression Assay (ABI) consisting of the FAM-labeled probes as follows: SEPT2 (Hs01565417_ml); WFDC2 (Hs00899484_ml); TBP (Hs00427620_ml) or B2M (Hs00187842_ml), which was used as reference for normalization. […] Cell viability, proliferation, and cellular apoptosis were measured using the MTS (Promega), BrdU cell proliferation (Cell Signaling Technology), and Caspase-Glo 3/7 apoptosis detection (Promega) assays, following the respective manufacturer's recommendations with suitable modification. […]

Row | SMILES | significantly differentially expressed genes versus control (PANC-1 cell line) | concentration lower than FCF for similar inhibition of HE4 secretion (HE4)
1 | CN(C)C/C=C/C(=O)Nc1cc2c(Nc3ccc(F)c(Cl)c3)ncnc2cc1O[C@H]1CCOC1 [Afatinib] | two | –
2 | O=C(Nc1ccnc(Cl)c1)Nc1cc(SC(F)(F)F)ccc1Cl [UR214-1] | – | 10- to 27 fold
3 | O=C(Nc1ccnc(Cl)c1)Nc1cccc(SC(F)(F)F)c1F [UR214-7] | – | 10- to 27 fold

Reference: patent publication US12433876B2, “Septin inhibitors for treatment of cancers” (UNIVERSITY OF ROCHESTER, priority 2019, dated 2025)
